Values joined by “and” are separate entries in the source; they are usually repeats but may differ in a detail not shown here. Equal values may be shown once. Where a name gives a salt, the structure may show the parent alone. This is one part of the list. Single values are uncertain here, since repeats match poorly.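 HEK293T cells were given each compound shortly before transfection with a reporter in which red mCherry is followed by the SARS-CoV-2 frameshift element and then GFP in the −1 frame, so GFP appears only after frameshifting.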
Test system: HEK293T
Assay: percent viability (nuclei count) relative to control; higher = more viable cells
Conditions: 10 µM; 24 h

| Compound | percent viability |
| --- | --- |
| O=c1[nH]c(=O)n([C@H]2C[C@H](O)[C@@H](CO)O2)cc1I [idoxuridine] | 220% and 215% |
| CC(COc1ccccc1Cc1ccccc1)N1CCCCC1 (stereo not given) [benproperine] | 220% |
| NS(=O)(=O)c1ccc(Cl)c(S(N)(=O)=O)c1 [clofenamide] | 259% |
| c1ccc(OCc2ccc(CCCN3CCOCC3)cc2)cc1 [fomocaine] | 86.2% |
| OC(CNC12CC3CC(CC(C3)C1)C2)COc1ccccc1 (stereo not given) [mantabegron] | 188% |
| CO[C@H]1/C=C/O[C@@]2(C)Oc3c(C)c(O)c4c(O)c(cc(O)c4c3C2=O)NC(=O)/C(C)=C\C=C\[C@H](C)[C@H](O)[C@@H](C)[C@@H](O)[C@@H](C)[C@H](OC(C)=O)[C@@H]1C [rifamycin] | 87.4% |
| NCCC[C@H](N)C(=O)O [ornithine] | 142% and 263% and 305% |
| Nc1ccc(S(=O)(=O)Nc2ccccn2)cc1 [sulfapyridine] | 169% |
| COc1cc(OC)c(C(=O)CCCN2CCCC2)c(OC)c1 | 178% |
| O=C1NCC2(CCN(CCc3ccccc3)CC2)O1 [Fenspiride] | 353% |
| CN1N=C2CCN(C(=O)[C@@H](COCc3ccccc3)NC(=O)C(C)(C)N)C[C@@]2(Cc2ccccc2)C1=O [capromorelin] | 145% |
| CN(C(=O)CCCOc1ccc2[nH]c(=O)ccc2c1)C1CCCCC1 [cilostamide] | 181% |
| CN1CC(=O)N=C1N | 306% |
| CC(C)CCC(=O)CC1c2ccccc2C(=O)N1c1ccc2ccc(Cl)nc2n1 (stereo not given) [pagoclone] | 144% |
| O=C(O)c1cc(=O)c2c(OCC(O)COc3cccc4oc(C(=O)O)cc(=O)c34)cccc2o1 [Disodium Cromoglycate] | 282% |
| O=c1nc2cccccc-2n1Cc1ccccc1 [benhepazone] | 154% |
| Cc1nc(=O)c2cc(CN(C)c3ccc(C(=O)N[C@@H](CCC(=O)O)C(=O)O)s3)ccc2[nH]1 [raltitrexed] | 167% |
| C[C@H](CCC(=O)O)[C@H]1CC[C@H]2[C@@H]3CC[C@@H]4C[C@H](O)CC[C@]4(C)[C@H]3C[C@H](O)[C@]12C [Deoxycholic Acid] | 319% |
| Cc1nnc(NS(=O)(=O)c2ccc(N)cc2)s1 [sulfamethizole] | 140% |
| CCCCN(CCCC)CCC(O)c1cc2c(Cl)cc(Cl)cc2c2cc(C(F)(F)F)ccc12 (stereo not given) [halofantrine] | 178% |

| Compound | percent viability |
| --- | --- |
| COc1ccc(O)cc1 [mequinol] | 179% |
| COc1ccccc1N1CCN(CCCNc2cc(=O)n(C)c(=O)n2C)CC1 [urapidil] | 258% |
| CCOC(Nc1ccc(C(=O)O)cc1)C(=O)c1ccc(-c2ccccc2)cc1 (stereo not given) [xenazoic acid] | 140% |
| COc1cccc2c1C(=O)c1c(O)c3c(c(O)c1C2=O)C[C@@](O)(C(=O)CO)C[C@@H]3O[C@H]1C[C@H](N)[C@H](O)[C@H](C)O1 [Doxorubicin·HCl] | 6.15% |
| CCNCc1c(CSC)cnc(C)c1O [tamitinol] | 134% |
| O=C1CN(/N=C/c2ccc(-c3ccc([N+](=O)[O-])cc3)o2)C(=O)N1 [dantrolene] | 198% |
| CCOCc1nc2c(N)nc3ccccc3c2n1CC(C)(C)O [resiquimod] | 219% |
| CN1C(C(=O)Nc2ccccn2)=C(O)c2sccc2S1(=O)=O [Tenoxicam] | 124% and 211% |
| CC(C)NCC(O)c1cc(O)cc(O)c1 (stereo not given) [orciprenaline] | 209% |
| CC(=O)[C@@]1(O)[C@H](O)C[C@H]2[C@@H]3CCC4=CC(=O)CC[C@]4(C)[C@H]3CC[C@@]21C [algestone] | 147% |
| Cn1c(=O)c2c(ncn2C)n(C)c1=O [Caffeine] | 382% |
| CCC(C)(C)c1ccc(OCCCCCCN2CCN(c3ccc(C)c(Cl)c3)CC2)cc1 [teroxalene] | 123% |
| CC(C)NCC(O)COc1cccc2ccccc12 (stereo not given) [propranolol] | 198% |
| NS(=O)(=O)c1cc(C(=O)O)cc(N2CCCC2)c1Oc1ccccc1 [piretanide] | 103% |
| CCc1c(Cl)c(O)c(Cl)c(O)c1C(=O)O[C@H]1[C@H](O)[C@H](OC)[C@H](OC/C2=C\C=C\C[C@H](O)/C(C)=C/[C@H](CC)[C@@H](O[C@@H]3OC(C)(C)[C@@H](OC(=O)C(C)C)[C@H](O)[C@@H]3O)/C(C)=C/C(C)=C/C[C@@H]([C@@H](C)O)OC2=O)O[C@@H]1C [Fidaxomicin] | 104% |
| CC(C)(C)NCC(O)COc1cccc2c1CCC(=O)N2 (stereo not given) | 360% |
| O=C1OC2(C3=C[C](Br)C([O-])=C=C3Oc3cc([O-])c(Br)cc32)c2ccccc21.[Hg+].[Na+].[Na+].[OH-] (stereo not given) | 167% |
| CCCCC(=O)N(Cc1ccc(-c2ccccc2-c2nnn[nH]2)cc1)[C@H](C(=O)O)C(C)C [valsartan] | 58.7% |
| CC(=O)Oc1ccccc1C(=O)O [Acetylsalicylic Acid] | 206% |
| C[C@H]1C[C@@H]2[C@H]([C@@H](O)C[C@@]3(C)[C@H]2CC[C@]3(O)C(=O)CO)[C@@]2(C)C=CC(=O)C=C12 [methylprednisolone] | 239% and 192% |

In another format: 2 of the compounds above.
Compound,percent viability
Cn1c(=O)c2c(ncn2C)n(C)c1=O [Caffeine],382%
C[C@H]1C[C@@H]2[C@H]([C@@H](O)C[C@@]3(C)[C@H]2CC[C@]3(O)C(=O)CO)[C@@]2(C)C=CC(=O)C=C12 [methylprednisolone],239% and 192%

— the supplement of paper PMC8256030
